The assay addresses T1, Excitatory Amino Acid Carrier 1 (EAAC1), rat (rat (endogenous in hippocampus, cortex, heart and C6 glioma cells)) (UniProt P51907).
T1 sequence: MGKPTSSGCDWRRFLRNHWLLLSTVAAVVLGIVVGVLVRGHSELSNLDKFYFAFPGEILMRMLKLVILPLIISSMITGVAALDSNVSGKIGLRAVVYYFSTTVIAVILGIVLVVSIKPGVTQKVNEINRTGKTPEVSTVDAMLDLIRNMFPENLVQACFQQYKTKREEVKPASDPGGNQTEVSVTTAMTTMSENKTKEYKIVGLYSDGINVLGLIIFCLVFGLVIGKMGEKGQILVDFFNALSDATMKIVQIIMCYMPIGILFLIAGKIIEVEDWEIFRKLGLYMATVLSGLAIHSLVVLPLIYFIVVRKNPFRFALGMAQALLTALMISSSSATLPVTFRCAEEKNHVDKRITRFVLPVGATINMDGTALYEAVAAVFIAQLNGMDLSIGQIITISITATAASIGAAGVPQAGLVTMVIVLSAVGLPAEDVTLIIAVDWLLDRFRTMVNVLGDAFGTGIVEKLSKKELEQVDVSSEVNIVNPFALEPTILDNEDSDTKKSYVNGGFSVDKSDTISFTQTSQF
As to the kind of experiment: co-IP; mitochondrial protein extracts from rat hippocampus and cortex; immunoprecipitation with mouse monoclonal anti-EAAC1 or anti-NCX1 (R3F1) antibody, A-Sepharose beads, western blot; normal mouse serum as negative control. On the technique in general: Immunoblotting shows a protein as a band on a membrane.

By UniProt entry, the sequences of proteins in these tests, tags left out. Residues count along the entry.
UniProt P48768, residues 21-921: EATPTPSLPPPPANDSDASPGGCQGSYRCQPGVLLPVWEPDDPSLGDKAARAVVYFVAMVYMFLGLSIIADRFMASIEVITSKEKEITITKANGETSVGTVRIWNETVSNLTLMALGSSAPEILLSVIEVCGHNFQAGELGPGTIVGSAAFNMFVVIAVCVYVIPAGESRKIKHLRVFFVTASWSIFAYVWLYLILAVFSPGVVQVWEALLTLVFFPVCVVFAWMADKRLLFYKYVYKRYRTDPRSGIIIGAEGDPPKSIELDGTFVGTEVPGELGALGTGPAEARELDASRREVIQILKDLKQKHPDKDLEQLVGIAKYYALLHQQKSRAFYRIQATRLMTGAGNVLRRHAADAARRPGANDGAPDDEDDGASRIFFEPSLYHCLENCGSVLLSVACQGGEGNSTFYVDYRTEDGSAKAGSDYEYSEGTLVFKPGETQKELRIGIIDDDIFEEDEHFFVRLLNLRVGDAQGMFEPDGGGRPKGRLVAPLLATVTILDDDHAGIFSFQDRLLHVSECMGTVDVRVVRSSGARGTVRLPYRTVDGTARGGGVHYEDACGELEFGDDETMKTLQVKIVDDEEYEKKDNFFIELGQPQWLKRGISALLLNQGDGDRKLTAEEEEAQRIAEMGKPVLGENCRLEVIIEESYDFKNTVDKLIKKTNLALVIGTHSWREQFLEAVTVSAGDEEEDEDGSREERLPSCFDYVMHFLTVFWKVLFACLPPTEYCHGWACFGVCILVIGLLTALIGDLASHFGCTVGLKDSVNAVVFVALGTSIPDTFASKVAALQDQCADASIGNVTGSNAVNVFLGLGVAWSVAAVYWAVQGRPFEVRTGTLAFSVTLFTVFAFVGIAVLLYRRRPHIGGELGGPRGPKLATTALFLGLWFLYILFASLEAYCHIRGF
UniProt P70549, residues 31-927: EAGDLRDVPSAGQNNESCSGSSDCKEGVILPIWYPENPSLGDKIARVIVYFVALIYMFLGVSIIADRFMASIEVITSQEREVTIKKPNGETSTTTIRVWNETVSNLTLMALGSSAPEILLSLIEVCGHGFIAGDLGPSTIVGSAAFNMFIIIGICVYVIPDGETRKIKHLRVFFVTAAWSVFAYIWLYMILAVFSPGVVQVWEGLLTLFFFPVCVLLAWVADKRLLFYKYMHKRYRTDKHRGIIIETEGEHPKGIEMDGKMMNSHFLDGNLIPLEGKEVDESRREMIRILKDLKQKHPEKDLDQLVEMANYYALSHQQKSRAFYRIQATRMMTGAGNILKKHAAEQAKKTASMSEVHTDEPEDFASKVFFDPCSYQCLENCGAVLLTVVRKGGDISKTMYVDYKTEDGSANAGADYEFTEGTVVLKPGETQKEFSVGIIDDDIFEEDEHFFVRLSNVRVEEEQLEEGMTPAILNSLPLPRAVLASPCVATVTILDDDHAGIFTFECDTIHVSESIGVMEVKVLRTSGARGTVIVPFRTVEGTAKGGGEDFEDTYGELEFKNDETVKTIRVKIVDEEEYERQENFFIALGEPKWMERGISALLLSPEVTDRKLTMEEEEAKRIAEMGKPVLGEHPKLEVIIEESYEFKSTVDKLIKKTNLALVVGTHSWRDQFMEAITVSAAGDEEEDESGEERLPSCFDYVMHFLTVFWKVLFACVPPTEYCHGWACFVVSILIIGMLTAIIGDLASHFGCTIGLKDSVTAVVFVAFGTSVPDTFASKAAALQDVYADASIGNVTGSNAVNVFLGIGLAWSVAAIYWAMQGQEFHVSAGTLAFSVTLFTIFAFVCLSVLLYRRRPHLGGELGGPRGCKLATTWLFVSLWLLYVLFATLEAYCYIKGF

No constants are given. Whether binding was seen depends on the method and setting. Binding seen in cells or lysates may run through a third protein.

For “Na+/Ca2+ exchanger 2 (NCX2), rat (from UniProt P48768 21-921)”, the binding entry is listed as “no binding”.
With “Na+/Ca2+ exchanger 3 (NCX3), rat (from UniProt P70549 31-927)” the entry was “no binding”.

The record behind these values is paper PMC3316532.
